The other results are listed elsewhere or left out.
Columns and labels:
Assay in all cases: glycan array binding signal (z-score within array); higher = stronger binding
Conditions in all cases: glycan notation: IUPAC condensed, linker removed
[1] = target: Gal3S4S(b1-4)GlcNAc
Method in brief: (§1)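 The binding signal is a Z-score computed within each array and averaged over linkers. Arrays of the same protein sequence at different concentrations or buffers were also averaged together. Data originate from 3228 arrays in the Consortium for Functional Glycomics database, kept only where the protein sequence was available.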

[2] = target: Gal3S6S(b1-4)GlcNAc
Method in brief: as §1

[3] = target: Gal3S6S(b1-4)GlcNAc6S
Method in brief: as §1

[4] = target: Gal4S(b1-4)GlcNAc
Method in brief: as §1

[5] = target: Gal4S6S(b1-4)GlcNAc
Method in brief: as §1

[6] = target: Gal6P(b1-4)GlcNAc
Method in brief: as §1

[7] = target: Gal6S(b1-3)GlcNAc
Method in brief: as §1

[8] = target: Gal6S(b1-3)GlcNAc6S
Method in brief: as §1

[9] = target: Gal6S(b1-4)Glc
Method in brief: as §1

[10] = target: Gal6S(b1-4)Glc6S
Method in brief: as §1

[11] = target: Gal6S(b1-4)GlcNAc
Method in brief: as §1

[12] = target: Gal6S(b1-4)GlcNAc6S
Method in brief: as §1

[13] = target: GalNAc(a1-3)Gal
Method in brief: as §1

[14] = target: GalNAc(a1-3)GalNAc
Method in brief: as §1

[15] = target: GalNAc(a1-3)GalNAc(b1-3)Gal(a1-4)Gal(b1-4)Glc
Method in brief: as §1

[16] = target: GalNAc(a1-3)GalNAc(b1-3)Gal(a1-4)Gal(b1-4)GlcNAc
Method in brief: as §1

[17] = target: GalNAc(b1-3)Gal
Method in brief: as §1

[18] = target: GalNAc(b1-3)Gal(a1-4)Gal(b1-4)GlcNAc
Method in brief: as §1

[19] = target: GalNAc(b1-3)Gal(a1-4)Gal(b1-4)GlcNAc(b1-3)Gal(b1-4)Glc
Method in brief: as §1

[20] = target: GalNAc(b1-3)Gal(a1-6)Gal(b1-4)Glc
Method in brief: as §1

[21] = target: GalNAc(b1-3)GalNAc
Method in brief: as §1

[22] = target: GalNAc(b1-3)GlcNAc
Method in brief: as §1

[23] = target: GalNAc(b1-4)Gal(b1-4)Glc
Method in brief: as §1

[24] = target: GalNAc(b1-4)GlcNAc
Method in brief: as §1

[25] = target: GalNAc(b1-4)GlcNAc(b1-2)Man
Method in brief: as §1

[26] = target: GalNAc(b1-4)GlcNAc(b1-2)Man(a1-3)[GalNAc(b1-4)GlcNAc(b1-2)Man(a1-6)]Man(b1-4)GlcNAc(b1-4)GlcNAc
Method in brief: as §1

[27] = target: GalNAc(b1-4)GlcNAc(b1-3)GalNAc(b1-4)GlcNAc
Method in brief: as §1

[28] = target: GalNAc(b1-4)GlcNAc6S
Method in brief: as §1

[29] = target: GalNAc(b1-6)GalNAc
Method in brief: as §1

[30] = target: GalNAc3S(b1-4)GlcNAc
Method in brief: as §1

[31] = target: GalNAc3S(b1-4)GlcNAc3S
Method in brief: as §1

[32] = target: GalNAc3S(b1-4)[Fuc(a1-3)]GlcNAc
Method in brief: as §1

[33] = target: GalNAc4S6S(b1-4)GlcNAc
Method in brief: as §1

[34] = target: GalNAc6S(b1-4)GlcNAc
Method in brief: as §1

[35] = target: Glc(a1-4)Glc
Method in brief: as §1

[36] = target: Glc(a1-4)Glc(a1-4)Glc(a1-4)Glc
Method in brief: as §1

[37] = target: Glc(a1-6)Glc(a1-6)Glc
Method in brief: as §1

[38] = target: Glc(a1-6)Glc(a1-6)Glc(a1-6)Glc
Method in brief: as §1

[39] = target: Glc(b1-4)Glc
Method in brief: as §1

[40] = target: Glc(b1-6)Glc
Method in brief: as §1

[41] = target: GlcA(b1-3)Gal
Method in brief: as §1

[42] = target: GlcA(b1-3)GlcNAc
Method in brief: as §1

[43] = target: GlcA(b1-6)Gal
Method in brief: as §1

[44] = target: GlcA3S(b1-3)Gal(b1-4)GlcNAc(b1-2)Man
Method in brief: as §1

[45] = target: GlcA3S(b1-3)Gal(b1-4)GlcNAc(b1-3)Gal(b1-4)Glc
Method in brief: as §1

B1: Endo180d1-D4 (Homo sapiens), Q9UBG0 (protein)
chain: MGPGRPAPAPWPRHLLRCVLLLGCLHLGRPGAPGDAALPEPNVFLIFSHGLQGCLEAQGGQVRVTPACNTSLPAQRWKWVSRNRLFNLGTMQCLGTGWPGTNTTASLGMYECDREALNLRWHCRTLGDQLSLLLGARTSNISKPGTLERGDQTRSGQWRIYGSEEDLCALPYHEVYTIQGNSHGKPCTIPFKYDNQWFHGCTSTGREDGHLWCATTQDYGKDERWGFCPIKSNDCETFWDKDQLTDSCYQFNFQSTLSWREAWASCEQQGADLLSITEIHEQTYINGLLTGYSSTLWIGLNDLDTSGGWQWSDNSPLKYLNWESDQPDNPSEENCGVIRTESSGGWQNRDCSIALPYVCKKKPNATAEPTPPDRWANVKVECEPSWQPFQGHCYRLQAEKRSWQESKKACLRGGGDLVSIHSMAELEFITKQIKQEVEELWIGLNDLKLQMNFEWSDGSLVSFTHWHPFEPNNFRDSLEDCVTIWGPEGRWNDSPCNQSLPSICKKAGQLSQGAAEEDHGCRKGWTWHSPSCYWLGEDQVTYSEARRLCTDHGSQLVTITNRFEQAFVSSLIYNWEGEYFWTALQDLNSTGSFFWLSGDEVMYTHWNRDQPGYSRGGCVALATGSAMGLWEVKNCTSFRARYICRQSLGTPVTPELPGPDPTPSLTGSCPQGWASDTKLRYCYKVFSSERLQDKKSWVQAQGACQELGAQLLSLASYEEEHFVANMLNKIFGESEPEIHEQHWFWIGLNRRDPRGGQSWRWSDGVGFSYHNFDRSRHDDDDIRGCAVLDLASLQWVAMQCDTQLDWICKIPRGTDVREPDDSPQGRREWLRFQEAEYKFFEHHSTWAQAQRICTWFQAELTSVHSQAELDFLSHNLQKFSRAQEQHWWIGLHTSESDGRFRWTDGSIINFISWAPGKPRPVGKDKKCVYMTASREDWGDQRCLTALPYICKRSNVTKETQPPDLPTTALGGCPSDWIQFLNKCFQVQGQEPQSRVKWSEAQFSCEQQEAQLVTITNPLEQAFITASLPNVTFDLWIGLHASQRDFQWVEQEPLMYANWAPGEPSGPSPAPSGNKPTSCAVVLHSPSAHFTGRWDDRSCTEETHGFICQKGTDPSLSPSPAALPPAPGTELSYLNGTFRLLQKPLRWHDALLLCESHNASLAYVPDPYTQAFLTQAARGLRTPLWIGLAGEEGSRRYSWVSEEPLNYVGWQDGEPQQPGGCTYVDVDGAWRTTSCDTKLQGAVCGVSSGPPPPRRISYHGSCPQGLADSAWIPFREHCYSFHMELLLGHKEARQRCQRAGGAVLSILDEMENVFVWEHLQSYEGQSRGAWLGMNFNPKGGTLVWQDNTAVNYSNWGPPGLGPSMLSHNSCYWIQSNSGLWRPGACTNITMGVVCKLPRAEQSSFSPSALPENPAALVVVLMAVLLLLALLTAALILYRRRQSIERGAFEGARYSRSSSSPTEATEKNILVSDMEMNEQQE
- glycan array binding signal (z-score) [1]: -0.68
- glycan array binding signal (z-score) [2]: 0.111
- glycan array binding signal (z-score) [3]: 4.83
- glycan array binding signal (z-score) [4]: -0.66
- glycan array binding signal (z-score) [5]: 0.265
- glycan array binding signal (z-score) [6]: -0.882
- glycan array binding signal (z-score) [7]: 1.72
- glycan array binding signal (z-score) [8]: -1.08
- glycan array binding signal (z-score) [9]: -0.154
- glycan array binding signal (z-score) [10]: -0.094
- glycan array binding signal (z-score) [11]: -0.001
- glycan array binding signal (z-score) [12]: 2.48
- glycan array binding signal (z-score) [13]: -0.605
- glycan array binding signal (z-score) [14]: 0.377
- glycan array binding signal (z-score) [15]: 0.74
- glycan array binding signal (z-score) [16]: -0.306
- glycan array binding signal (z-score) [17]: -0.876
- glycan array binding signal (z-score) [18]: 0.337
- glycan array binding signal (z-score) [19]: -0.747
- glycan array binding signal (z-score) [20]: -1.31
- glycan array binding signal (z-score) [21]: 0.186
- glycan array binding signal (z-score) [22]: 0.816
- glycan array binding signal (z-score) [23]: -0.247
- glycan array binding signal (z-score) [24]: 0.273
- glycan array binding signal (z-score) [25]: -0.808
- glycan array binding signal (z-score) [26]: -1.94
- glycan array binding signal (z-score) [27]: -0.859
- glycan array binding signal (z-score) [28]: -0.478
- glycan array binding signal (z-score) [29]: -0.31
- glycan array binding signal (z-score) [30]: -0.85
- glycan array binding signal (z-score) [31]: 1.66
- glycan array binding signal (z-score) [32]: 0.231
- glycan array binding signal (z-score) [33]: 3.2
- glycan array binding signal (z-score) [34]: -0.385
- glycan array binding signal (z-score) [35]: -0.445
- glycan array binding signal (z-score) [36]: 0.29
- glycan array binding signal (z-score) [37]: 0.215
- glycan array binding signal (z-score) [38]: -0.88
- glycan array binding signal (z-score) [39]: -1.31
- glycan array binding signal (z-score) [40]: -0.071
- glycan array binding signal (z-score) [41]: 1.06
- glycan array binding signal (z-score) [42]: 0.23
- glycan array binding signal (z-score) [43]: -0.321
- glycan array binding signal (z-score) [44]: -0.037
- glycan array binding signal (z-score) [45]: 0.123

From the supplement of paper PMC8728848
